Laboratory results reported in paper PMC12663380.
Results are given in words; binding and its absence hold for the method and conditions named. In cells and extracts the contact can be indirect. Here binding means that the protein was enriched with, or labelled near, the bait; the list need not be complete.

Sequences of proteins named here, by UniProt entry; tags and fusion partners are left off.
UniProt Q969Q1: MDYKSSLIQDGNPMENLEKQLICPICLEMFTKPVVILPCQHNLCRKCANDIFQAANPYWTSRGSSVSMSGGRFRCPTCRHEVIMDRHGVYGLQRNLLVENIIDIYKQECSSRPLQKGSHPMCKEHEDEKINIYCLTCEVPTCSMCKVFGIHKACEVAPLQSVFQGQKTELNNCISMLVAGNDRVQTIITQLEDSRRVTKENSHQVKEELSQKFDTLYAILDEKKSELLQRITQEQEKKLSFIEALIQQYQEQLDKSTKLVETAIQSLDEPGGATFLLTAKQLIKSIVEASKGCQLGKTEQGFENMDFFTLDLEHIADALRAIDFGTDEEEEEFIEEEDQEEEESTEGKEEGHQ

Molecular target: TRIM63 (endogenous) (human (endogenous in HEK293T)) (UniProt Q969Q1)
Experiment: affinity purification with mass spectrometry; 293T cells with or without EGF (100 ng/mL) for 30 min; IP with an anti-TRIM63 antibody, SDS-PAGE, Coomassie; band at approximately 48 kDa seen upon EGF excised for mass spectrometry (Fig. 4A, B)

B1: IRF-8 (endogenous) (protein, UniProt Q02556 1-426)
chain: MCDRNGGRRLRQWLIEQIDSSMYPGLIWENEEKSMFRIPWKHAGKQDYNQEVDASIFKAWAVFKGKFKEGDKAEPATWKTRLRCALNKSPDFEEVTDRSQLDISEPYKVYRIVPEEEQKCKLGVATAGCVNEVTEMECGRSEIDELIKEPSVDDYMGMIKRSPSPPEACRSQLLPDWWAQQPSTGVPLVTGYTTYDAHHSAFSQMVISFYYGGKLVGQATTTCPEGCRLSLSQPGLPGTKLYGPEGLELVRFPPADAIPSERQRQVTRKLFGHLERGVLLHSSRQGVFVKRLCQGRVFCSGNAVVCKGRPNKLERDEVVQVFDTSQFFRELQQFYNSQGRLPDGRVVLCFGEEFPDMAPLRSKLILVQIEQLYVRQLAEEAGKSCGAGSVMQAPEEPPPDQVFRMFPDICASHQRSFFRENQQITV
Which binding does the source give for B1 here?
Its binding is “binds”.
